# Test results published in PubChem BioAssay AID588497 (NMMLSC, 2011).
# Hit rate of the full screen: of about 360,000 compounds, about 780 (0.22%) were called active. Inconclusive results, whose numbers are uncertain, are shown with a selection of clear calls. Cut-off read from the data, not from the text of the source: active = inhibition above about 35% (passing the limit was not always enough); inconclusive = no clear call, values can overlap the other calls.
# Tested on: Botulinum neurotoxin type F light chain protease (Clostridium botulinum)
# Assay: BoNT/F light chain protease inhibitors, primary screen, biochemical, flow cytometry, MLPCN library (AID 588497); note: plate controls were buffer without enzyme for full effect and enzyme alone for no effect
# Details: Multiplex microsphere protease cleavage assay, at 10 µM, hits give high values
row,Compound,inhibition
1,Cc1nc(-c2nc(C(=O)NNS(C)(=O)=O)cs2)cs1,inconclusive: -66.8%
2,CCOc1cc(C(=O)Nc2cccnc2)cc(OCC)c1OCC,inconclusive: 27.8%
3,Cc1c(C(=O)/C=C/N(C)C)nnn1-c1ccc(Cl)cc1Cl,inconclusive: 40%
4,Cc1ccc(S(=O)(=O)Nc2cncnc2NS(=O)(=O)c2ccc(C)cc2)cc1,inactive: -3.8%
5,O=C(Nc1ccc2oc(-c3ccccc3F)nc2c1)c1ccccc1F,inconclusive: -7.3%
6,C/C(=N\NC(=O)Cc1cccn1C)c1ccco1,inconclusive: -20.5%
7,COc1ccc(O)c(-c2cc(-c3ccc(F)cc3)n[nH]2)c1,inconclusive: -25.1%
8,O=C(Cn1c(=O)oc2ccccc21)Nc1ccc(Cl)cc1Cl,inconclusive: -8.4%
9,CCN1CCN(CC(c2ccccc2)c2ccccc2)CC1,inconclusive: 3.5%
10,CCCCn1c(N)c(N(CC(C)C)C(=O)CC2CCCC2)c(=O)[nH]c1=O,inactive: -2.7%
11,O=C1CCc2cc(S(=O)(=O)NCCC(=O)N3CCN(c4cccc(Cl)c4)CC3)ccc2N1,inconclusive: 8.3%
12,CN(N)c1nc(N2CCCC2)nc(N2CCCC2)n1,inconclusive: -64.9%
13,CCOC(=O)C1=C(N)OC2=C(C(=O)CCC2)C1c1ccc2c(c1)OCO2 (stereo not drawn),inconclusive: 7.9%
14,Cc1nn(-c2ccccc2)c(C)c1C(=O)NNC(=O)C(F)(F)F,inconclusive: 25%
15,Cc1ccccc1-c1nc2ccccc2[nH]1,inactive: -2.4%
16,O=C1CCCC(O)=C1N=Nc1c(Cl)cc(C(F)(F)F)cc1Cl,inconclusive: -61.5%
17,CCOc1cc(/C=C2\SC(=NC)N(C)C2=O)c(Br)cc1OC(C)=O,inconclusive: 9.4%
18,Cc1csc(NC(=O)CSc2nc3ccccc3s2)n1,inactive: 8.2%
19,CC(CCN1CCN(c2ccccc2)CC1)c1ccccc1 (stereo not drawn),inconclusive: -9.6%
20,COc1ccc(/C=C/C(=O)NC(=S)Nc2ccc(N3CCN(C(C)=O)CC3)cc2)cc1,inconclusive: 14.8%
21,CC(C)CNC(=O)c1c(N)n(Cc2ccco2)c2nc3ccccc3nc12,inactive: -7.1%
22,Cc1ccc(Oc2ccc(/C=N/O)cn2)cc1,inconclusive: 17.7%
23,N#C/C(=C/c1ccc(N2CCCCC2)o1)C(=O)Nc1ccc2ccccc2c1,active: 64.7%
24,COc1cc(NC(=O)Nc2ccccc2OC)c(OC)cc1NC(=O)CN1CCCCC1,inactive: -4.5%

row,Compound,inhibition
1,CC(C)(C)c1csc(CS(=O)(=O)c2ccccn2)n1,inconclusive: 90.3%
2,CCCCn1nnnc1NCc1ccc(N2CCCC2)cc1,inactive: -59%
3,c1ccc(COc2ncnc3c2ncn3CCCNC2CCN(Cc3ccccc3)CC2)cc1,inactive: -13.3%
4,CN(C)C/C=C/C(O)(c1ccccc1)c1ccccc1,inconclusive: 27.2%
5,CC(C)Cc1nc(Nc2ccccc2C#N)c2nnn(Cc3ccccc3)c2n1,inconclusive: -5%
6,Cc1ccc(S(=O)(=O)CC(=O)NC2CC2)cc1,inconclusive: -25.1%
7,Oc1cccc(/C=N/Nc2nn3cnnc3c3ccccc23)c1,inactive: 3.2%
8,CC(C)c1ccc(N(CCc2ccccn2)C(=O)C(C)(C)C)cc1,inconclusive: 5.2%
9,O=C(Nc1ccccc1C(=O)NC1CCCCC1)c1ccco1,inactive: 0.4%
10,CCCCn1c(N)c(N(CC(C)C)C(=O)Cn2c(=O)cnc3ccccc32)c(=O)[nH]c1=O,inconclusive: 7.3%
11,COc1cccc(C2c3[nH]c4ccccc4c3C[C@H]3C(=O)N(CCCOC(C)C)CC(=O)N23)c1 (stereo partly drawn),inconclusive: -2.7%
12,CC1CCCC(C)N1C(=O)Cn1nnc(-c2ccc([N+](=O)[O-])cc2)n1 (stereo not drawn),inconclusive: -55.4%
13,N=c1ccn(Cc2c(Cl)cccc2Cl)cc1,inconclusive: 26.9%
14,Cc1[nH][nH]c(=O)c1N=Nc1ccccc1Cl,inconclusive: -108%
15,O=C(Cn1cnc2ccccc2c1=O)Nc1nnc(SCc2ccc(Cl)cc2)s1,inactive: -4%
16,CCN(CC)C(=O)CSc1nnc(CSc2ncccn2)n1C,inactive: -6.7%
17,Cc1cc(C(=O)N2CCN(c3ncccn3)CC2)nn1C,inconclusive: -2.3%
18,CCOc1ccc(CCNC(=O)c2cc(=O)[nH]c3ccc(S(=O)(=O)N(CC)CC)cc23)cc1OCC,inactive: -1.2%
19,O=C(Nc1ccc(Br)cc1)c1cccc(N2C(=O)C3CCCCC3C2=O)c1 (stereo not drawn),inactive: -0.6%
20,O=C(NC(=S)Nc1ccccc1)C1CCCCC1,inactive: 2.8%
21,CC(NNC(=S)N1CCCCCC1)c1ccc2ccccc2n1 (stereo not drawn),inactive: -38.8%
22,CC(=O)C1=CCC(c2ccc(C)cc2)N(S(=O)(=O)c2ccc(Cl)cc2)C1 (stereo not drawn),inactive: -16.4%
23,CC(Sc1nc2ccccc2c(=O)n1CC1CCCO1)C(=O)NC(C)c1ccccc1 (stereo not drawn),inconclusive: 12%
24,O=C(Cc1ccccc1)N/N=C/c1cc(Br)cs1,inconclusive: 33.7%

row,Compound,inhibition
1,Oc1ccc(/C=N/NC(=S)NC2CC3CCC2C3)cc1 (stereo not drawn),inconclusive: -1.3%
2,O=C(CNC(=O)C12CC3CC(CC(C3)C1)C2)NCc1ccccc1,inconclusive: 7.6%
3,O=C(c1cc(-c2ccccc2O)on1)N1CCc2ccccc2C1,inactive: -3.5%
4,COc1ccc(C(=O)NC2CCCCCCC2)cc1OC,inconclusive: 1%
5,C=CCn1c(=O)c(C(=O)Nc2ccc(C)cn2)c(O)c2ccccc21,inconclusive: -10.7%
6,O=C(CCN1CCCCCC1)c1ccccc1,inconclusive: 11.6%
7,COC(=O)c1ccccc1-c1c2ccc(=N)cc-2oc2cc(N)ccc12,active: 61.8%
8,COc1ccc(Cc2nnc(NC(=O)c3cc(OC)c(OC)c(OC)c3)s2)cc1,inconclusive: 28%
9,CC(=O)Nc1ccc(C(=O)N2CC(=O)NC(=O)C2)cc1,inconclusive: -13.7%
10,Cc1ccsc1/C=N/N1CCN(c2ccccn2)CC1,inconclusive: 58.8%
11,CCOc1ccccc1CNc1nnnn1C,inconclusive: 2.7%
12,O=C(c1sccc1Cl)N1CCN(Cc2ccc3c(c2)OCO3)CC1,inconclusive: -4.4%
13,COc1cc(C)c(C)cc1S(=O)(=O)n1c(C)nc2ccccc21,inconclusive: 22.8%
14,CC1CCN(C(=O)CSc2nc3ccccc3c(=O)n2Cc2ccc3c(c2)OCO3)CC1,inactive: 2.3%
15,O=C(O)C(c1ccccc1)N1C(=O)c2cccc3cccc(c23)C1=O (stereo not drawn),inconclusive: 28.5%
16,COC(=O)c1cnc(Oc2ccc(NC(=O)NC(=O)c3c(F)cccc3Cl)cc2)cc1C(F)(F)F,inconclusive: 51.5%
17,CC(C)c1nnc(NC(=O)c2cccc(NC(=O)C(F)(F)F)c2)s1,inactive: -5.3%
18,C/C(CC(=O)Nc1cccnc1)=N\NC(=O)C(=O)NC(C)C,inconclusive: 8.8%
19,COc1ccccc1Oc1ccc2c(c1)C(=O)N(CC(=O)O)C2=O,active: 37.5%
20,CN(CCO)C(=O)C(c1ccccc1)c1ccccc1,inconclusive: 23.3%
21,Nc1nc(NCCO)nc(N2CCCCCC2)c1[N+](=O)[O-],inconclusive: 16.9%
22,CC(OC(=O)C1=Cc2ccccc2OC1)C(=O)NCC1CCCO1 (stereo not drawn),inactive: 5.5%
23,CCOC(=O)C1=C(OCc2ccc(Cl)cc2)C2C=C(C)C=CC2N=C1 (stereo not drawn),inconclusive: 7.8%
24,CC(C)(C)NC(=O)CSc1nc2cccnc2n1C1CCCCC1,inconclusive: -20.1%

row,Compound,inhibition
1,Cc1ccc2c(C)c(C(=O)N3CCC(O)(c4ccccc4)CC3)oc2c1C,inactive: 16.7%
2,O=C(O)CC1(CC(=O)NCc2ccncc2)CCCCC1,inconclusive: 35.9%
3,CC1(C)Cc2c(sc3c2c(=O)n(-c2ccc(Cl)cc2)c(=O)n3CC(N)=O)CO1,inconclusive: 57%
4,Clc1ccc(CCNc2ncnc3c2nnn3Cc2ccccc2)cc1,inconclusive: -11.5%
5,C/C=C/Cn1c(Br)nc2c1c(=O)[nH]c(=O)n2C,inactive: 1%
6,Nc1nc2c(ncn2[C@@H]2O[C@H](CNCc3cnc(N4CCOCC4)nc3)[C@@H](O)[C@H]2O)c(=O)[nH]1,inactive: 1.1%
7,Cn1c(SCC(=O)Nc2ccc3nc(SCC(=O)N4CCCC4)sc3c2)nnc1-c1ccc(N)cc1,inactive: -0.9%
8,O=C1N(c2ccccc2C(F)(F)F)O[C@]1(c1ccccc1)C1CCCCC1,inactive: 1.5%
9,COc1cccc(CC(CC(=O)O)C(=O)Nc2cc(C)ccc2C)c1 (stereo not drawn),inconclusive: -25.7%
10,O=[N+]([O-])c1ccc(S(=O)(=O)Nc2nc(-c3ccccc3)cs2)cc1,inconclusive: -5.6%
11,COc1ccc(C2CC(=O)N3C(=C2C#N)SCC3(O)c2ccccc2)cc1 (stereo not drawn),inactive: 2.2%
12,COc1cc2c(cc1OC)CN(Cc1cc(OC)c3c(c1)OCO3)CC2,inconclusive: 5.6%
13,CCN(CC)c1ccc(N=Cc2c(O)[nH]c(=O)[nH]c2=O)cc1,inconclusive: -51.6%
14,O=C(CSc1cc(Cl)ccc1Cl)Nc1ccc(N2CCOCC2)cc1,inactive: -18.1%
15,NC(=O)c1sc2nc3c(cc2c1N)CCCCCC3,inconclusive: 4.5%
16,COc1cc(CCC(=O)NNC(=O)c2ccc(C)cc2)cc(OC)c1OC,inactive: -4.9%
17,Cc1ccc(C2=NS(=O)(=O)N(C)C(C(=O)NC(C)c3ccccc3)=C2)cc1 (stereo not drawn),inactive: -8.8%
18,Cc1ccc(Cl)cc1NC(=O)C1COc2ccccc2O1 (stereo not drawn),inconclusive: 5%
19,CCC(C)(C)n1nnnc1C(c1ccccc1)N1CCN(C2CCCC2)CC1 (stereo not drawn),inconclusive: -1.4%
20,Cc1cccc(N2CCN(C(=O)c3cccs3)CC2)c1C,inconclusive: -52.7%
21,Cn1nc(-c2ccccn2)nc2c(=O)n(C)c(=O)nc1-2,inactive: 9.5%

# 5 consecutive entries out of the list so far, quoted:
row,Compound,inhibition
14,O=C(CSc1cc(Cl)ccc1Cl)Nc1ccc(N2CCOCC2)cc1,inactive: -18.1%
15,NC(=O)c1sc2nc3c(cc2c1N)CCCCCC3,inconclusive: 4.5%
16,COc1cc(CCC(=O)NNC(=O)c2ccc(C)cc2)cc(OC)c1OC,inactive: -4.9%
17,Cc1ccc(C2=NS(=O)(=O)N(C)C(C(=O)NC(C)c3ccccc3)=C2)cc1 (stereo not drawn),inactive: -8.8%
18,Cc1ccc(Cl)cc1NC(=O)C1COc2ccccc2O1 (stereo not drawn),inconclusive: 5%
